Test results published in PubChem BioAssay AID504467 (National Center for Advancing Translational Sciences (NCATS), 2011).
The whole screen tested about 330,000 compounds, of which about 7,700 (2.3%) were called active. The shares of active, inactive and inconclusive entries below differ from those in the screen. The call rests on the fitted dose curve; in most records, active means well fitted inhibition curve with a large enough effect; inconclusive means small, poorly fitted or top-dose-only effect, or effect the other way; inactive means flat fitted curve, though single readings scatter. Potencies of inconclusive entries are doubtful fits and often do not repeat.

Assay: qHTS screen for small molecules that inhibit ELG1-dependent DNA repair in human embryonic kidney (HEK293T) cells expressing luciferase-tagged ELG1; further: nearly all actives have a fitted effect of over 55% in size
Settings: HEK293T ELG1-luciferase reporter, luminescence, 16 h, DNA damage induced by 5-fluorouridine; series mostly up to 46.1 µM
Summary of the method: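 HEK293T cells expressing luciferase-tagged ELG1 (2,000/well) received 5-Fluorouridine plus compound or DMSO for 16 hr at 37 °C. Luciferase was read by ONE-Glo luminescence after 30 min at room temperature.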
Potency means the concentration at half of the fitted maximal effect.

Structure (SMILES) | Potency
CC(=O)C1=C(C)NC(C)=C(C(C)=O)C1c1cn(-c2ccccc2)nc1-c1cccs1 | inconclusive: 20.6 µM [activator, single point]
O=C(c1ccc(C(F)(F)F)cc1)N1CCN(S(=O)(=O)c2ccc3c(c2)OCCCO3)CC1 | inconclusive: 13 µM [activator, partial curve]
COc1cc(C(=O)Nc2cc(C(F)(F)F)ccc2Cl)cc(OC)c1OC | inactive
O=S(=O)(c1cccc(C(F)(F)F)c1)N1CCCC1c1cccnc1 (centres undefined) | inactive
COCCSc1ccccc1C(=O)N1CCCC(C)C1 (centres undefined) | inactive
CC(C)c1ccc(N=c2c([N+](=O)[O-])nn(-c3ccc4c(c3)OCCO4)n2O)cc1 | inactive
CN(CC1CCCN(CCc2ccc(Cl)cc2)C1)C(=O)C(=O)c1ccco1 (centres undefined) | inactive
O=C(c1ccccc1F)N(Cc1ccc(F)cc1)C1CCS(=O)(=O)C1 (centres undefined) | inactive
Cc1ccsc1C(=O)OCC(=O)NC1CC1 | inconclusive: 9.2 µM [activator, single point]
O=C(Nc1ccc(Br)cc1)c1cc2ccccn2n1 | inconclusive: 0.92 µM [activator, full curve]
CC(OC(=O)c1ccc2c(c1)NC(=O)CS2)C(=O)c1ccc(F)cc1 (centres undefined) | inconclusive: 29.1 µM [inhibitor, single point]
C=CCn1c(Cc2c(C)[nH]c3ccccc23)nnc1SCC(=O)NCc1ccc(F)cc1 | inconclusive: 29.1 µM [inhibitor, single point]
CC1CN(C(=O)COC(=O)Cc2c(Cl)cccc2Cl)CC(C)O1 (centres undefined) | inactive
CCCCCCOC(=O)C(C#N)c1nc2ccccc2nc1N1CCCCC1 (centres undefined) | inactive
CC(O)CNC(=O)C1CCN(Cc2ccc(OCc3ccccc3)cc2)CC1 (centres undefined) | inconclusive: 14.6 µM [activator, partial curve]
CC(C)c1ccc(NC(=O)c2cc3c(=O)n(C)c4ccccc4c3n2C)cc1 | inconclusive: 29.1 µM [inhibitor, single point]
O=C(COc1ccccc1)Nc1c2c(nn1-c1ccc(F)cc1)CS(=O)(=O)C2 | inactive
O=C(Nc1cccc(C(F)(F)F)c1)c1sc(Cl)nc1C(F)(F)F | inconclusive: 1 µM [activator, full curve]
CCOC(=O)c1c(C)nc(C)c(C(=O)OCC)c1-c1ccccc1 | inconclusive: 7.31 µM [activator, partial curve]
O=C(Nc1ccc2c(c1)OCO2)c1ccc(Cl)nc1 | inconclusive: 20.6 µM [activator, partial curve]
CCOC(=O)c1ccc(NC(=O)C(=O)NCc2ccco2)cc1 | inconclusive: 18.3 µM [activator, single point]
CN(Cc1ccco1)C(=O)c1c[nH]c2ccc(S(=O)(=O)Nc3ccc4c(c3)OCCO4)cc2c1=O | inactive
Cc1ccc(C(=O)/C=C2/NC(=O)CS2)cc1 | inconclusive: 20.6 µM [activator, partial curve]

A different layout for some results above:
Structure (SMILES)	Potency
O=S(=O)(c1cccc(C(F)(F)F)c1)N1CCCC1c1cccnc1 (centres undefined)	inactive
O=C(COc1ccccc1)Nc1c2c(nn1-c1ccc(F)cc1)CS(=O)(=O)C2	inactive

Later entries:

Structure (SMILES) | Potency
CCN1C(=O)CC(C(=O)Nc2ccc(F)cc2)SC1=Nc1ccc2c(c1)OCO2 (centres undefined) | inconclusive: 29.1 µM [inhibitor, single point]
Cn1c(SCC(=O)Nc2ccc3c(c2)oc2ccccc23)nnc1-c1ccccc1 | inconclusive: 16.4 µM [activator, partial curve, poor fit]
COc1cc(/C=N/n2c(C3CCCCC3)n[nH]c2=S)cc(OC)c1O | inconclusive: 16.4 µM [inhibitor, partial curve]
Cc1ccc(-c2nnn(CC(=O)N(c3cccc(O)c3)C(C(=O)NC(C)(C)C)c3cccs3)n2)o1 (centres undefined) | inconclusive: 35.5 µM [inhibitor, single point]
COc1cccc(CN2CCN(Cc3nc4c(s3)CCCC4)CC2CCO)c1 (centres undefined) | inconclusive: 23.1 µM [inhibitor, partial curve, poor fit]
C=CCc1cccc2cc(C(=O)NCc3ccc(C(=O)OCC)o3)c(=O)oc12 | inactive
COc1cccc(/C=N/NC(=O)COc2cccc3cccnc23)c1O | inconclusive: 9.2 µM [inhibitor, partial curve]
O=C(NC(=S)Nc1ccc(CN2CCOCC2)cc1)c1cc2ccccc2o1 | inconclusive: 23.1 µM [activator, single point]
Cc1cccc(N(Cc2ccccc2)C(=O)c2cccc(S(=O)(=O)N3CC(C)OC(C)C3)c2)c1 (centres undefined) | inconclusive: 25.9 µM [inhibitor, single point]
Cc1ccc(NC2=CC(=O)C(=O)c3ccccc32)c(C)c1 | active: 20.6 µM
Cc1cccc(-n2nc([N+](=O)[O-])c(=NCc3cccnc3)n2O)c1 | inactive
O=C(c1cc2ccccc2oc1=O)N(Cc1ccccc1)C1CCS(=O)(=O)C1 (centres undefined) | inconclusive: 20.6 µM [activator, partial curve]
CCOC(=O)NC(=S)c1ccc[nH]1 | inactive
O=C(NCc1ccc2c(c1)OCO2)C1CC(=O)N(c2ccc(Cl)cc2)C1 (centres undefined) | inactive
c1ccc(Nc2scc(-c3ccccc3)[n+]2Cc2ccco2)cc1 | inconclusive: 2.91 µM [activator, full curve]
CC(C)COc1ccc(C(=O)OCC(=O)N(C)CC(=O)Nc2ccc(F)cc2)cc1 | inconclusive: 0.73 µM [activator, partial curve, poor fit]
Cc1n[nH]c(C)c1N1C(=O)c2cccc3c(N4CCCCCC4)ccc(c23)C1=O | inconclusive: 25.9 µM [inhibitor, single point]
Cn1c(Cc2ccccc2)[n+](C)c2ccccc21 | inconclusive: 29.1 µM [inhibitor, single point]
O=C(CNc1cccc2ccccc12)N/N=C/c1ccc([N+](=O)[O-])o1 | inconclusive: 14.6 µM [inhibitor, partial curve]
Cc1ccc2[nH]c(=O)c3cc(C(=O)N(C)C4CCCCC4)sc3c2c1 | inactive
COc1ccc(Cl)cc1N(CC(=O)Nc1ccccc1C(=O)NCc1ccco1)S(C)(=O)=O | inconclusive: 29.1 µM [inhibitor, single point]
CC(=O)N1N=C(c2cccc([N+](=O)[O-])c2)OC1c1ccc(Cl)cc1Cl (centres undefined) | inactive
c1ccc(-c2nnc(-c3c[nH]c4ccccc34)nc2-c2ccccc2)cc1 | active: 23.1 µM

Structure (SMILES) | Potency
CCNC(=O)CSc1nc2sccc2c(=O)n1-c1ccccc1 | inconclusive: 10.3 µM [inhibitor, partial curve, poor fit]
O=C(C[C@@H]1C/C=C\C[C@H](Cc2ccc(F)cc2)C(=O)OC[C@H]2CCCN2C1=O)N[C@H](CO)Cc1ccccc1 | inconclusive: 25.9 µM [inhibitor, single point]
CC(=O)Nc1cccc(OCc2cnc(Cl)s2)c1 | inconclusive: 16.4 µM [activator, single point]
CCc1ccc(Nc2nnc(SCC(=O)c3ccc4c(c3)NC(=O)CO4)s2)cc1 | inconclusive: 29.1 µM [activator, single point]
Cc1ccc(NNC(=O)c2cc(C(C)(C)C)nn2Cc2ccccc2)cc1 | inconclusive: 5.8 µM [inhibitor, full curve]
Cc1ccc(NC(=O)CSc2ncnc3ccccc23)cc1S(=O)(=O)N1CCCCCC1 | inconclusive: 14.6 µM [inhibitor, partial curve, poor fit]
O=C(c1cccc(S(=O)(=O)Nc2ccc(F)cc2)c1)N1CCC1 | inactive
O=C(Nc1ccc(Cl)c(C(F)(F)F)c1)C(=O)N1CCCCC1 | inconclusive: 20.6 µM [activator, partial curve]
O=C(NCCCn1ccnc1)c1cc(-c2ccccc2)on1 | inconclusive: 20.6 µM [activator, single point]
CCCCCN(C(=O)CCC(=O)OCc1cccc(C)c1)c1c(N)n(CCCC)c(=O)[nH]c1=O | inactive
CC(C)C(=O)NC(c1ccccc1Cl)c1c(O)ccc2ccccc12 (centres undefined) | inactive
COc1ccccc1-c1nc(NC(C)=O)n[nH]1 | inconclusive: 29.1 µM [activator, partial curve, poor fit]
Cn1c(NCc2ccco2)nc2c1c(=O)n(Cc1ccc(Br)cc1)c(=O)n2C | active: 18.4 µM
CCOC(=O)Cc1csc(N/N=C\c2ccc(N(C)C)cc2)n1 | inconclusive: 18.3 µM [activator, partial curve]
COc1cc(NC2c3ncccc3C(=O)N2Cc2ccco2)cc(OC)c1 (centres undefined) | inconclusive: 6.51 µM [activator, partial curve, poor fit]
Cc1ccc2[nH]c(=O)c3cc(C(=O)N(C)c4ccccc4C)sc3c2c1 | inconclusive: 3.26 µM [inhibitor, partial curve, poor fit]
COc1cccc(-c2nc(-c3ccncc3)no2)c1 | inconclusive: 9.2 µM [activator, partial curve]
CCn1c(CSc2nnc(-c3ccc4c(c3)OCO4)o2)nc2cc(S(=O)(=O)N(C)C)ccc21 | active: 14.6 µM
Cn1ccsc1=NC(=O)c1ccc(OC(F)(F)F)cc1 | inconclusive: 16.4 µM [activator, partial curve]
CCC(NC(=O)CCc1c(C)c2cc3c(-c4ccccc4)coc3cc2oc1=O)C(=O)O (centres undefined) | inactive
Cc1ccc(OCCCC(=O)Nc2ccc(S(=O)(=O)N3CCOCC3)cc2)cc1 | inconclusive: 14.6 µM [inhibitor, partial curve]
Cc1cccc(NC(=O)c2cccc(S(=O)(=O)N3CCCC3)c2)n1 | inactive
CCC1=C2CC[C@H]3C(=O)NC(=O)[C@H]3[C@H]2[C@@]2(Cc3ccccc3)C(=NCC(=O)OC)OC(=O)N2C1=O | inconclusive: 18.3 µM [activator, partial curve, poor fit]

Structures shown so far that contain an NH in an aromatic ring:
Structure (SMILES) | Potency
C=CCn1c(Cc2c(C)[nH]c3ccccc23)nnc1SCC(=O)NCc1ccc(F)cc1 | inconclusive: 29.1 µM [inhibitor, single point]
CN(Cc1ccco1)C(=O)c1c[nH]c2ccc(S(=O)(=O)Nc3ccc4c(c3)OCCO4)cc2c1=O | inactive
COc1cc(/C=N/n2c(C3CCCCC3)n[nH]c2=S)cc(OC)c1O | inconclusive: 16.4 µM [inhibitor, partial curve]
CCOC(=O)NC(=S)c1ccc[nH]1 | inactive
Cc1n[nH]c(C)c1N1C(=O)c2cccc3c(N4CCCCCC4)ccc(c23)C1=O | inconclusive: 25.9 µM [inhibitor, single point]
Cc1ccc2[nH]c(=O)c3cc(C(=O)N(C)C4CCCCC4)sc3c2c1 | inactive
c1ccc(-c2nnc(-c3c[nH]c4ccccc34)nc2-c2ccccc2)cc1 | active: 23.1 µM
CCCCCN(C(=O)CCC(=O)OCc1cccc(C)c1)c1c(N)n(CCCC)c(=O)[nH]c1=O | inactive
COc1ccccc1-c1nc(NC(C)=O)n[nH]1 | inconclusive: 29.1 µM [activator, partial curve, poor fit]
Cc1ccc2[nH]c(=O)c3cc(C(=O)N(C)c4ccccc4C)sc3c2c1 | inconclusive: 3.26 µM [inhibitor, partial curve, poor fit]
